Record: PubChem BioAssay AID504786 (Drosophila RNAi Screening Center, 2011)
The deposit covers about 21,000 reagents; below is an unselected part of those with a known target gene and a result. 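Primary screen; positive scores mean lost reporter signal, so the sign may be inverted from the usual convention.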 Names joined by + are all predicted targets of the reagent. No sequences are given here.

Aim: 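Positive regulators of HIF-driven reporter output in Drosophila cells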 (primary screen)
Cells: Drosophila S2 cells with a stable HIF luciferase reporter
Reagent: long dsRNA against Drosophila genes, about 0.2 µg dsRNA per well of a 384-well plate
Duration: three days of knock-down, then 20 h of DFO before reading
Conditions: desferrioxamine (DFO) at 100 µM, an iron chelator that mimics hypoxia, for 20 h
Measurement: 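HIF reporter luminescence in cells given 100 µM DFO for 20 h, using the mouse ldh-a hypoxia-response element, scored as per-plate z-scores; higher means greater loss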
Direction: z-score: higher = stronger loss of HIF reporter signal

Target gene | PubChem SID | z-score, replicate 1 | z-score, replicate 2 | z-score, replicate 3 | z-score, replicate 4
Idua | SID104182733 | -0.3 | -0.5 | – | –
Polr2A | SID104200072 | 5.2 | 3.5 | – | –
Sting | SID104186407 | 0 | -0.1 | – | –
CG7130 | SID104191589 | -0.4 | -0.4 | – | –
CG15514 | SID104194845 | -0.2 | 0 | – | –
CG13862 | SID104194504 | -0.1 | 0.3 | – | –
REPTOR | SID104194418 | 0.2 | -0.4 | – | –
Ppox | SID104196825 | -0.4 | 0 | – | –
Rab10 | SID104200364 | -0.9 | -1.2 | – | –
TrissinR | SID104182126 | -0.2 | -0.1 | – | –
TrissinR | SID104182127 | -0.5 | -0.4 | – | –
TrissinR | SID104182128 | -0.3 | -0.2 | – | –
Prosbeta6 | SID104191048 | 6.3 | 5.3 | – | –
CG42342 | SID104192957 | -0.5 | -0.2 | – | –
CG42342 | SID104194170 | 4.2 | 5.2 | – | –
CG42342 | SID104194802 | -0.2 | -0.4 | – | –
CG42342 | SID104194803 | 0 | 0 | – | –
CG42342 | SID104194804 | 0.1 | -0.2 | – | –
betaGlu | SID104195211 | -0.2 | 0 | – | –
CG7694 | SID104196080 | -1 | -0.4 | – | –
CG14669 | SID104191857 | 2.1 | -0.1 | – | –
CG14669 | SID104191859 | -0.3 | 0.8 | – | –
CG14669 | SID104191860 | -0.4 | 0.7 | – | –
CG14669 | SID104192047 | -0.5 | -1.1 | – | –
5PtaseI | SID104196061 | -0.2 | 0.1 | – | –
CG14563 | SID104191516 | 0.1 | -0.3 | – | –
CG9686 | SID104198231 | 0.1 | 0.8 | – | –
EMC2B | SID104195298 | 0.4 | 0.7 | – | –
daed | SID104180091 | -0.3 | -0.1 | – | –
Rpn13R | SID104198196 | -0.3 | -0.6 | – | –
GAPcenA | SID104190563 | -0.4 | -0.1 | – | –
dbe | SID104180603 | -0.1 | 0.4 | – | –
CG31013 | SID104196334 | -0.3 | -0.3 | – | –
Tsp66A + CG42661 + CG42660 | SID104190025 | -0.1 | 0.3 | – | –
CR41501 | SID104187577 | 0.1 | 0.1 | – | –
CG13984 | SID104182108 | 0 | 0.1 | – | –
CG32507 | SID104200213 | -0.2 | 0 | 0 | 0.2
CG3702 | SID104180420 | -0.4 | -0.5 | – | –
CaMKII | SID104197006 | -0.4 | 1.1 | – | –
Sptz | SID104195550 | -0.2 | -0.4 | – | –
CG11475 | SID104183905 | -0.3 | -0.5 | – | –
Plekhm1 | SID104184319 | -0.2 | 0.5 | – | –
CG13527 | SID104183961 | -0.4 | -0.7 | – | –
CG7800 | SID104196107 | -0.4 | 0.6 | – | –
CG5397 | SID104180475 | -0.2 | -0.7 | – | –
Act57B | SID104183834 | 0.5 | 1.7 | – | –
beta-PheRS | SID104195651 | 0.3 | 0.4 | – | –
CG7402 | SID104190631 | -0.2 | 1.3 | – | –
Cip4 | SID104187883 | -0.3 | -0.3 | – | –
Cip4 | SID104188261 | 0.1 | 0.4 | – | –
bora | SID104190536 | -0.4 | -0.5 | – | –
Cht7 + tRNA:Cys-GCA-1-4 + tRNA:Lys-CTT-1-13 | SID104187813 | 0.3 | -0.2 | -0.2 | -0.4
CG33964 + CG13175 | SID104186092 | -0.3 | 0.1 | – | –
CG33964 + CG13175 | SID104186093 | -0.1 | 0.2 | – | –
CG33964 + CG13175 | SID104186976 | -0.1 | 0.5 | – | –
CG1092 | SID104191943 | -0.3 | -0.6 | – | –
shn | SID104185058 | -0.1 | -0.2 | – | –
shn | SID104187473 | 0.1 | 0.5 | – | –
CG31957 | SID104179999 | -0.2 | -0.2 | – | –
hog | SID104198849 | -0.3 | -0.3 | – | –
bab2 | SID104187942 | 0 | 1.2 | – | –
bab2 | SID104188172 | 0.8 | -0.5 | – | –
CycK | SID104183506 | 1.6 | 0.9 | – | –
CG11889 + CG11891 | SID104194218 | -0.6 | -0.8 | – | –
CG11889 + CG11891 | SID104194219 | -0.3 | -0.4 | – | –
Or67b | SID104191033 | -0.2 | 0 | – | –
pum | SID104192514 | -0.4 | -0.2 | – | –
pum | SID104192518 | 0.2 | 0.2 | – | –
pum | SID104196829 | 0.8 | 0.7 | -0.9 | -0.1
pum | SID104196830 | -0.4 | 0 | – | –
ppk23 | SID104199902 | 0 | 1.1 | – | –
CG5447 | SID104195593 | -0.5 | 1.1 | – | –
stx | SID104198234 | 1.8 | 0.4 | – | –
stx | SID104198235 | -0.2 | 0.1 | – | –
CG16739 | SID104186413 | 0.4 | 1.1 | – | –
tup | SID104183419 | -0.4 | -0.4 | – | –
CG10822 | SID104185797 | -0.3 | -0.1 | – | –
CG12986 | SID104199298 | -0.1 | -0.6 | – | –
beat-IIb | SID104193011 | -0.2 | 2.8 | – | –
beat-IIb | SID104194608 | -0.4 | -0.2 | – | –
beat-IIb | SID104195338 | -0.1 | -0.2 | – | –
gudu | SID104182612 | -0.4 | -0.4 | – | –
SecCl | SID104190679 | 0 | -0.3 | – | –
lolal | SID104186740 | -0.2 | -0.1 | – | –
CG8236 | SID104196191 | -0.1 | -0.3 | – | –
CG16762 | SID104188285 | -0.1 | 0 | – | –
Gga | SID104198052 | -0.3 | -0.4 | – | –
Exo84 | SID104195757 | -0.4 | 0.4 | – | –
CG11313 | SID104194087 | -0.3 | 0.1 | – | –
Neurl4 | SID104190430 | -0.1 | -0.2 | – | –
CG9386 | SID104196277 | -0.2 | -0.1 | – | –
CkIIbeta2 | SID104187153 | -0.2 | -0.1 | – | –
rsh | SID104198758 | -0.4 | -0.2 | – | –
rsh | SID104199608 | -0.4 | 0.1 | – | –
CG33704 | SID104183630 | 0.3 | -0.1 | – | –
CG33758 | SID104184950 | -0.1 | -0.1 | – | –
CG11656 | SID104194130 | -0.3 | -0.3 | – | –
CG18661 | SID104182482 | -0.2 | -0.2 | – | –
Lmpt | SID104189242 | -0.5 | -0.7 | -0.2 | -0.2
Lmpt | SID104189656 | -0.2 | -0.9 | – | –
Lmpt | SID104189657 | -0.3 | -0.4 | – | –
Lmpt | SID104189658 | -0.3 | -0.3 | – | –
Lmpt | SID104190899 | -0.3 | 0.8 | – | –
RpS16 | SID104184234 | 4.1 | 4.5 | – | –
Pepck2 | SID104185805 | -0.2 | -0.5 | – | –
CG11883 | SID104185886 | -0.3 | -0.3 | – | –

Only “z-score, replicate 2” (13 entries from above):
CG16762 [SID104188285] = 0
Gga [SID104198052] = -0.4
Exo84 [SID104195757] = 0.4
CG11313 [SID104194087] = 0.1
Neurl4 [SID104190430] = -0.2
CG9386 [SID104196277] = -0.1
CkIIbeta2 [SID104187153] = -0.1
rsh [SID104198758] = -0.2
rsh [SID104199608] = 0.1
CG33704 [SID104183630] = -0.1
CG33758 [SID104184950] = -0.1
CG11656 [SID104194130] = -0.3
CG18661 [SID104182482] = -0.2
